In article PMC6989696 one finds binding data, which are given here for two molecules.

For test [1], the target named is FLAG-tagged Tau-RD-ΔK280 (human Tau Repeat Domain, Q244-E372) (human) (UniProt P10636). In words: affinity purification with mass spectrometry; Tau-RD* late-stage aggregates and fibrils (selected at t4, followed to t24) on anti-FLAG beads, incubated with rat brain extract 1 h at 4 °C; compared with monomeric Tau-RD* without heparin (t0−); only the target purified.
For test [2] the target is unchanged. Description: affinity purification with mass spectrometry; Tau-RD* monomers (37 µM) on anti-FLAG beads, incubated with rat brain extract 1 h at 4 °C; compared with empty FLAG beads; only the target purified.

These are yes or no findings as the source states them, for the method shown. In cells and extracts the contact can be indirect. Here binding means that the protein was enriched with, or labelled near, the bait; the list need not be complete. For some of these results: No binding means not detected with the bait.

In the case of CTBP1 (from UniProt Q9Z2F5 1-430), the binding result in test [1] was “no binding (only Tau-RD* as fibrils)”; in test [2] it was “binds”.

B1: FBXO3 (protein, UniProt D4ABP9 1-480)
chain: MAAVEAETGLLTLESLPTDPLLLILSFVDYRDLINCCYVSRRLSQLSTHDPLWRRHCKKYWLITEEEKARKNQCWKSLFIATYSDVGRYINHYAAIKKAWDDLKKYLEPRCPRMVLSLKEGAREEDLDAVEAQIGCKLPDDYRCSYRIHNGQKLVVPGLLGSMALSNHYRSEDLLDVDTAAGGFQQRQGLKYCLPLTFCIHTGLSQYIAVEAAEGRNKNEVFYQCPDQMARNPAAIDMFIIGATFTDWFTSYVNNVVSGGFPIIRDQIFRYIHDPECVATTGDITVSVSTSFLPELSSVHPPHYFFTYRIRIEMSRDALPEKACQLDSRYWRITNAKGDVEEVQGPGVVGEFPIISPGRIYEYTSCTTFSTTSGYMEGYYTFHFLYFKDKVFNVAIPRFHMACPTFRVSIARLEMGPDEYEEMEEEAEEEEEEENDDSADMDESDESDEDENESDEGEGEERRRRVFDVPIRRRRCSRLF
For the molecule B1, the binding entry in test [1] is “no binding (only Tau-RD* as fibrils)”; in test [2], “binds”.
